We go through 1 molecule from publication PMC7479149.

Protein sequences, listed by entry. Tags and fused reporters are not part of them.
UniProt Q96SW2: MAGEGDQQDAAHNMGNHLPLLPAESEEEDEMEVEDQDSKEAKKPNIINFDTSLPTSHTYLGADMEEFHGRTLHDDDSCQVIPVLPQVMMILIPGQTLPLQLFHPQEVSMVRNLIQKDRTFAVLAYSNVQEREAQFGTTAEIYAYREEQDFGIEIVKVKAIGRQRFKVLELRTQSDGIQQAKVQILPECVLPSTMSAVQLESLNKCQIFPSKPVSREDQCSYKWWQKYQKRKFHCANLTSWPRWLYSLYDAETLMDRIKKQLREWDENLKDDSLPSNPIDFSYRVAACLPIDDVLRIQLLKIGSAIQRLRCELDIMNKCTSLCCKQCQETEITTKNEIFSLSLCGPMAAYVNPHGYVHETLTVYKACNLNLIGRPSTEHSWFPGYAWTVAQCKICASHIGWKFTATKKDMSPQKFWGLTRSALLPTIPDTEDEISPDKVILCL

No constants are given. Whether binding was seen depends on the method and setting. Binding seen in cells or lysates may run through a third protein. Some entries that bind do so weakly or less than the wild type. Where a sequence is shown, tags or fusion partners need not be part of it.

The target in the assay is cereblon (UniProt Q96SW2). Description: co-IP; method not told for Fig. 5g; the methods describe only immunoprecipitation and Western blot of cell lysates; compared with and without L-arginine.

B1: glucokinase (enzyme, UniProt P35557 16-465)
chain: VEQILAEFQLQEEDLKKVMRRMQKEMDRGLRLETHEEASVKMLPTYVRSTPEGSEVGDFLSLDLGGTNFRVMLVKVGEGEEGQWSVKTKHQMYSIPEDAMTGTAEMLFDYISECISDFLDKHQMKHKKLPLGFTFSFPVRHEDIDKGILLNWTKGFKASGAEGNNVVGLLRDAIKRRGDFEMDVVAMVNDTVATMISCYYEDHQCEVGMIVGTGCNACYMEEMQNVELVEGDEGRMCVNTEWGAFGDSGELDEFLLEYDRLVDESSANPGQQLYEKLIGGKYMGELVRLVLLRLVDENLLFHGEASEQLRTRGAFETRFVSQVESDTGDRKQIYNILSTLGLRPSTTDCDIVRRACESVSTRAAHMCSAGLAGVINRMRESRSEDVMRITVGVDGSVYKLHPSFKERFHASVRRLTPSCEITFIESEEGSGRGAALVSAVACKKACMLGQ
Consider B1, for which the binding result is “binds”.
